The test is described as follows: qHTS Assay for Lipid Storage Modulators in Drosophila S3 Cells.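 As to cell number change: cells counted by Cell Tracker Red CMTPX staining in the red channel.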 The following applies: BODIPY lipid droplet fluorescence, 18-24 h; for cell number change: measured here: cell count max response, cells fed with added oleic acid. The procedure, abridged: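 Drosophila S3 cells got compounds at several concentrations plus oleic acid (400 uM solution). Laser-scanning cytometry with 488 nm excitation read lipid droplets at 500-530 nm and cells at 575-640 nm. Percent activity was relative to 20 uM Triacsin C.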

Where [1] appears, read: measured here: lipid fluorescence (Fed channel) AC50, cells fed with added oleic acid.
[2] abbreviates: measured here: cell number channel AC50, cells fed with added oleic acid.

We go through 40 compounds from PubChem BioAssay AID2685 (National Center for Advancing Translational Sciences (NCATS), 2010).

The structures appear in SMILES notation. The list shows a part of the results. The main result of the screen is listed elsewhere. These columns were measured beside it and carry no call. Compounds called inactive in the main read-out are mostly missing here. Words in brackets tell the shape of the fitted curve; partial curves, single points and poor fits give uncertain potencies.

A word on the AC50: it is the midpoint of the concentration-response curve, whichever way the signal moves. Read a high AC50 as activity only at high concentration. With `O=C1CSc2nc3ccccc3n21`, the cell number change was -12.5%. Moreover, under setting [1], the AC50 was 6.51 µM [rising, single point].

`Cc1ccc2c(NC(=O)C3CC3)c(C)ccc2n1`: the cell number change was 1.08%. For the same compound, the AC50 under setting [1] was 29.1 µM [rising, single point].

As for `Cc1ccc(NC(=O)CSc2nccn(-c3ccc4c(c3)OCCO4)c2=O)cc1`, the cell number change was -50%. In addition, under setting [2], the AC50 was 7.31 µM [falling, partial curve].

`CCc1nc(SCC(=O)Nc2ccccc2OC)c2c(C)c(C)sc2n1`: the cell number change is 7.89%. For the same compound, the AC50 under setting [1] is 35.5 µM [falling, single point].

In the case of `CC1(C)CC(C#N)(N2CCOCC2)CCO1` (stereo unspecified), the cell number change is -13.7%. For the same compound, the AC50 under setting [2] was 0.82 µM [falling, full curve, poor fit]. Under setting [1], the concentration at half-maximal activity (AC50) was 0.731 µM [falling, full curve, poor fit].

For the compound `O=c1c(-c2n[nH]c(=S)n2-c2ccccc2)cccn1Cc1cccc(Cl)c1`, the cell number change came out at 10.2%.

In the case of `CN(CC(=O)Nc1ccc(F)c(F)c1F)C(=O)C1CCN(C(=O)Nc2ccccc2)CC1`, the cell number change is -7.8%.

Consider `Cc1ccc(-c2n[nH]c(=S)n2/N=C/c2cc3c(cc2[N+](=O)[O-])OCO3)cc1`, for which the cell number change came to 2.8%. Under setting [2], the AC50 is 6.51 µM [falling, single point].

Turning to `O=C(CSC1CCCCC1)N1CCN(c2ccccc2)CC1`, the cell number change was found to be 10.7%.

Regarding `CCN(CC)Cc1nc2c(c(=O)[nH]1)C1(CCCC1)Cc1ccccc1-2`, the cell number change is -58.2%. Besides, the AC50 under setting [2] was 16.4 µM [falling, partial curve]. Further, the AC50 under setting [1] is 20.6 µM [falling, partial curve, poor fit].

With `Cc1ccc(NC(=O)Cc2nnc(SCC(=O)Nc3nncs3)n2C)c(C)c1`, the cell number change stood at 9.46%. In addition, the concentration at half-maximal activity (AC50) under setting [1] is 4.11 µM [rising, full curve].

In the case of `CN1CCN(C(=O)C2CCN(c3ncnc4c3nc3n4CCCCC3)CC2)CC1`, the cell number change was determined as 0.597%.

Consider `CCN(CC)c1ccc(C(=O)OCC(=O)Nc2ccccc2-c2ccccc2)cc1`, for which the cell number change was determined as 3.03%. The AC50 under setting [2] is 0.517 µM [rising, partial curve]. Moreover, the AC50 under setting [1] was 1.64 µM [rising, partial curve].

In the case of `O=c1[nH]c(N/N=C/c2ccccc2)nc2ccccc12`, the cell number change came out at 64.1%. The AC50 under setting [2] was 20.6 µM [rising, single point].

For `O=C(Cc1cccs1)N1CCN(S(=O)(=O)c2ccc(Cl)c(C(F)(F)F)c2)CC1`, the cell number change was -20.9%. Under setting [2], the AC50 was 0.366 µM [falling, full curve, poor fit].

Regarding `CCCCNS(=O)(=O)/C=C/c1ccccc1`, the cell number change worked out at 9.25%. The AC50 under setting [1] was 0.731 µM [falling, single point].

Regarding `CN(NC(=O)Nc1ccc(Cl)cc1)c1c(Cl)c(Cl)nn1C`, the AC50 was 3.66 µM [rising, single point] under setting [2] and 3.66 µM [rising, full curve] under setting [1].

With `COc1ccc2nc(C)cc(N3CCN(S(=O)(=O)c4ccccc4F)CC3)c2c1`, the cell number change was -10.4%. Besides, the AC50 under setting [1] is 6.51 µM [rising, single point].

`CC(C)c1nc2sc3c(c2c(=O)o1)CCCC3`: the cell number change is -10%.

In the case of `N#Cc1ccc(C(=O)NNC(=O)c2ccncc2)cc1`, the cell number change is 35.8%. Besides, the AC50 under setting [1] is 29.1 µM [rising, single point].

As for `CCn1nnnc1NCc1ccc(Cl)cc1`, the cell number change came to 2.35%. In addition, under setting [1], the half-maximal activity concentration (AC50) is 10.3 µM [rising, partial curve].

As for `Cc1ccc(S(=O)(=O)N2CCOCC2)cc1NC(=O)COC(=O)c1cc[n+]([O-])cc1`, the cell number change is -23.7%. Under setting [2], the AC50 is 6.51 µM [falling, single point]. The AC50 under setting [1] was 4.11 µM [falling, single point].

For the compound `COc1ccc2c(c1)CC[C@@H]1[C@@H]2CC[C@]2(C)[C@@H](C(=O)O)C[C@@H]12`, the cell number change was -20.2%. Besides, the AC50 under setting [1] is 11.6 µM [rising, partial curve, poor fit].

Regarding `Cc1ccc(S(=O)(=O)N2CCN(CC(=O)NCC3(N4CCOCC4)CCCCC3)CC2)cc1`, the AC50 under setting [1] was 6.51 µM [falling, partial curve, poor fit].

For the compound `C1CCC2=NCCCN2CC1`, the cell number change was -14.1%. Moreover, the AC50 under setting [2] is 6.51 µM [falling, single point].

Consider `COc1ccc(CCNC(=O)CSc2nncs2)cc1`, for which the cell number change is 1.88%. For the same compound, the AC50 under setting [1] is 32.6 µM [falling, partial curve, poor fit].

For `COc1ccc(C(=O)N2CCN(c3ccccc3)CC2)cc1S(=O)(=O)N1CCCC1`, the cell number change was 17.8%. Further, the AC50 under setting [1] was 29.1 µM [rising, single point].

On to `Cc1cc(C)c(C)c(Cn2c(CO)nc3ccccc32)c1C`, for which the cell number change was -42.5%. For the same compound, the AC50 under setting [2] was 29.1 µM [falling, single point]. Besides, the AC50 under setting [1] was 29.1 µM [falling, single point].

As to `N=C1C(c2ccccc2)=C(O)CN1CCCO`, the cell number change came out at 35.9%. Besides, the AC50 under setting [2] was 16.4 µM [rising, single point]. Moreover, the AC50 under setting [1] was 29.1 µM [rising, single point].

`CCN(CC)CCCNC(=O)c1ccc2c(SCC(=O)O)c3c(nc2c1)CCC3`: the cell number change is 33.7%. Moreover, the AC50 under setting [2] is 29.1 µM [rising, single point]. Besides, the AC50 under setting [1] was 14.6 µM [falling, partial curve].

In the case of `C=CCSc1nnnn1-c1ccc(OC)cc1`, the cell number change came to 20%. For the same compound, the AC50 under setting [1] was 6.51 µM [falling, single point].

`CCCC(NS(=O)(=O)c1ccc(-c2ccc(=O)[nH]n2)s1)c1cccs1` (stereo unspecified): the cell number change was -10%.

Regarding `Cc1cc(C)n2nc(SCC(=O)Nc3ccccc3)nc2n1`, the cell number change came out at 137%. Also, the AC50 under setting [1] is 29.1 µM [rising, single point].

For `O=c1c2[nH]c3ccccc3c2ncn1Cc1ccccn1`, the cell number change was -10.6%. Also, the AC50 under setting [1] is 0.651 µM [falling, partial curve, poor fit].

With `Cc1cc(C(=O)CSc2nnc(-c3ccc(Cl)cc3)n2CC2CCCO2)c(C)n1C` (stereo unspecified), the cell number change was determined as 5.94%.

With `CCCSc1ccc(-c2nn(-c3ccccc3)cc2/C=C(/C#N)C(=O)NCCCOC)cc1`, the cell number change was -83.3%. Moreover, the AC50 under setting [2] was 29.1 µM [falling, single point].

Regarding `CC(C)NC(=O)CS(=O)(=O)c1ccccc1`, the cell number change was found to be 4.19%.

As to `COC(CNC(=O)c1ccc(N2CCc3ccccc32)c([N+](=O)[O-])c1)OC`, under setting [1], the AC50 was 18.4 µM [falling, partial curve].

With `CN(C)n1cnc2ccsc2c1=O`, the cell number change turned out to be 31.1%. Moreover, the AC50 under setting [2] is 5.17 µM [falling, single point].

In the case of `CCN(CC)c1ccc(NC(=O)COC(=O)c2cccs2)cc1`, the AC50 under setting [1] was 0.092 µM [rising, partial curve, poor fit].
